Values from PubChem BioAssay AID1224830 (NIAID, 2016).

Aim: 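Regulators of TLR4 signalling towards TNF-alpha in macrophage-like cells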 (primary screen)
System: human THP-1 monocytic leukaemia cells, TNF dual-luciferase reporter clone, PMA-differentiated to macrophage-like cells
Knock-down reagent: siRNA pool against human genes, 50 nM
Time to read-out: LPS for 4 h, given about 3 days after siRNA transfection
Conditions: bacterial LPS (TLR4 ligand), 10 ng/ml
Measured: 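Ratio of firefly to renilla light, scaled to the plate median and expressed as a robust z-score per replicate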
Scale: TNF reporter robust z-score: higher = stronger TNF reporter response to LPS
Rule for the call: 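a well is active when its z-score exceeds 2.8 or falls below -1.5; control wells carry no call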
The deposit covers about 18,000 reagents; this is an unselected part. About 2,900 of all reagents (16%) count as active. 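Calls are made per well; low scores hint the gene aids the LPS response, high scores that it dampens it.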 A number with no mark means an inactive call. Repeated entries: four replicate wells of each siRNA pool.

no.	gene	TNF reporter robust z-score
1	TMIE	0.89
2	TMIE	0.25
3	TMIE	0.4
4	TMIE	5.76 (active)
5	IGFL1	-0.04
6	IGFL1	1.13
7	IGFL1	1.75
8	NACC1	-0.19
9	NACC1	0.44
10	NACC1	0.13
11	NACC1	0.47
12	FAM43B	1
13	FAM43B	1.65
14	FAM43B	0.42
15	FAM43B	1.43
16	CA2	1.47
17	CA2	1.64
18	CA2	0.29
19	CA2	1.55
20	ACKR2	0.15
21	ACKR2	0.02
22	ACKR2	-0.17
23	ACKR2	0.5
24	MITF	0.61
25	MITF	-0.23
26	MITF	-0.43
27	MITF	-1.4
28	GNA12	-0.77
29	GNA12	-0.38
30	GNA12	-0.05
31	GNA12	-0.21
32	CADPS	-0.27
33	CADPS	-0.87
34	CADPS	-1.84 (active)
35	CADPS	-1.05
36	PLCL2	0.48
37	PLCL2	0
38	PLCL2	-0.35
39	PLCL2	44.2 (active)
40	DMC1	1.8
41	DMC1	0
42	DMC1	-0.39
43	DMC1	0.21
44	TRAPPC10	-0.25
45	TRAPPC10	0.9
46	TRAPPC10	-0.16
47	TRAPPC10	0.13

Part of the list above in another layout.
MITF
- TNF reporter robust z-score: -0.43

MITF
- TNF reporter robust z-score: -1.4

GNA12
- TNF reporter robust z-score: -0.77

GNA12
- TNF reporter robust z-score: -0.38

GNA12
- TNF reporter robust z-score: -0.05
